No constants are given. Whether binding was seen depends on the method and setting. Binding can be weak; no strength is given.

For assay [1], the target named is monkey GITR (full length, on cells) (monkey). Nature of the assay: flow cytometry (FACS) on 293F-cGITR cells. In general terms: In flow cytometry, cells or beads pass a laser one at a time.
The target is the same in assay [2]. Nature of the assay: FACS on 293F-cGITR cells, MFI [panel B].

B1: 3503-hab064 (antibody, V domains shown)
VH: QVQLVESGGGVVQPGRSLRLSCAASGFTFSSYGMHWVRQAPGKGLEWVAVIWYETSNKYYADSVKGRFTISRDNSKNTLYLQMNNLRAEDTAVYYCARYGGNSGWYWYFDLWGRGTLVTVSS
VL: DIQLTQSPSFLSASVGDRVTITCRASQGISSFLAWYQQKPGTAPKLLIYAASTLQSGVPSRFSGSGSGTEFTLTISSLQPEDFATYCCQQLNSYPFTFGQGTKLEIK
Regarding B1, the binding entry in assay [1] and in assay [2] was “binds” in each case.

B2: 3503-mAb070 (antibody, V domains shown)
VH: QVQLVESGGGVVQPGRSLRLSCAASGFTFSSYGMHWVRQAPGKGLEWVAVIWYETSNKFYVDSVKGRFTISRDNSKNTLYLQMNSLRAEDTAVYYCARYGASSGWYWYFDLWGRGTLVTVSS
VL: DIQLTQSPSFLSASVGDRVTITCRASQGISSFLAWYQQKPGKAPKLLIYAASTLQSGVPSRFSGSGSGTEFTLTISSLQPEDFATYCCQQLNSYPFTFGQGTKLEIK
In the case of B2, in assay [1], the binding result was “binds”.

B3: 3503-hab070 (antibody, V domains shown)
VH: QVQLVESGGGVVQPGRSLRLSCAASGFTFSSYGMHWVRQAPGKGLEWVAVIWYETSNKFYVDSVKGRFTISRDNSKNTLYLQMNSLRAEDTAVYYCARYGASSGWYWYFDLWGRGTLVTVSS
VL: DIQLTQSPSFLSASVGDRVTITCRASQGISSFLAWYQQKPGKAPKLLIYAASTLQSGVPSRFSGSGSGTEFTLTISSLQPEDFATYCCQQLNSYPFTFGQGTKLEIK
Regarding B3, the binding result in assay [1] and in assay [2] was “binds” each time.

B4: 3503-mAb064 (antibody, V domains shown)
VH: QVQLVESGGGVVQPGRSLRLSCAASGFTFSSYGMHWVRQAPGKGLEWVAVIWYETSNKYYADSVKGRFTISRDNSKNTLYLQMNNLRAEDTAVYYCARYGGNSGWYWYFDLWGRGTLVTVSS
VL: DIQLTQSPSFLSASVGDRVTITCRASQGISSFLAWYQQKPGTAPKLLIYAASTLQSGVPSRFSGSGSGTEFTLTISSLQPEDFATYCCQQLNSYPFTFGQGTKLEIK
Take B4: in assay [1], the binding result is listed as “binds”.

B5: 3503-hab070e1 (antibody, V domains shown)
VH: QVQLVESGGGVVQPGRSLRLSCAASGFTFSSYGMHWVRQAPGKGLEWVAVIWYETSNKFYVDSVKGRFTISRDNSKNTLYLQMNSLRAEDTAVYYCARYGASSGWYWYFDLWGRGTLVTVSS
VL: DIQLTQSPSFLSASVGDRVTITCRASQGISSFLAWYQQKPGKAPKLLIYAASTLQSGVPSRFSGSGSGTEFTLTISSLQPEDFATYYCQQLNSYPFTFGQGTKLEIK
Regarding B5, the binding result in assay [1] and in assay [2] was “binds” each time.

The values are drawn from US20220119541A1.
